Experimental data as given in the supplement of paper PMC8728848.
This is one part of the list.

Experiments:
Assay in all cases: glycan array binding signal (z-score within array); higher = stronger binding
Settings in all cases: glycan notation: IUPAC condensed, linker removed
[1] = target: Neu5Ac(a2-3)Gal(b1-3)GalNAc
Outline: (§1)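 Columns mapping to the same glycan were averaged after glycan names were converted to IUPAC-condensed notation. The data come from 3228 arrays in the Consortium for Functional Glycomics database, limited to those with an available protein sequence. Binding is reported as a within-array Z-score averaged across arrays of one protein sequence and across linkers.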

[2] = target: Neu5Ac(a2-3)Gal(b1-3)GalNAc(b1-3)Gal(a1-4)Gal(b1-4)Glc
Outline: as §1

[3] = target: Neu5Ac(a2-3)Gal(b1-3)GalNAc(b1-4)Gal(b1-4)Glc
Outline: as §1

[4] = target: Neu5Ac(a2-3)Gal(b1-3)GalNAc(b1-4)[Neu5Ac(a2-3)]Gal(b1-4)Glc
Outline: as §1

[5] = target: Neu5Ac(a2-3)Gal(b1-3)GalNAc(b1-4)[Neu5Ac(a2-8)Neu5Ac(a2-3)]Gal(b1-4)Glc
Outline: as §1

[6] = target: Neu5Ac(a2-3)Gal(b1-3)GalNAc6S
Outline: as §1

[7] = target: Neu5Ac(a2-3)Gal(b1-3)GlcNAc
Outline: as §1

[8] = target: Neu5Ac(a2-3)Gal(b1-3)GlcNAc(b1-2)Man
Outline: as §1

[9] = target: Neu5Ac(a2-3)Gal(b1-3)GlcNAc(b1-2)Man(a1-3)[GlcNAc(b1-4)][Neu5Ac(a2-3)Gal(b1-3)GlcNAc(b1-2)Man(a1-6)]Man(b1-4)GlcNAc(b1-4)GlcNAc
Outline: as §1

[10] = target: Neu5Ac(a2-3)Gal(b1-3)GlcNAc(b1-2)Man(a1-3)[Neu5Ac(a2-3)Gal(b1-3)GlcNAc(b1-2)Man(a1-6)]Man(b1-4)GlcNAc(b1-4)GlcNAc
Outline: as §1

[11] = target: Neu5Ac(a2-3)Gal(b1-3)GlcNAc(b1-2)[Neu5Ac(a2-3)Gal(b1-3)GlcNAc(b1-4)]Man(a1-6)[Neu5Ac(a2-3)Gal(b1-3)GlcNAc(b1-2)Man(a1-3)]Man(b1-4)GlcNAc(b1-4)GlcNAc
Outline: as §1

[12] = target: Neu5Ac(a2-3)Gal(b1-3)GlcNAc(b1-3)Gal(b1-3)GlcNAc
Outline: as §1

[13] = target: Neu5Ac(a2-3)Gal(b1-3)GlcNAc(b1-3)Gal(b1-4)GlcNAc
Outline: as §1

[14] = target: Neu5Ac(a2-3)Gal(b1-3)GlcNAc(b1-3)GalNAc
Outline: as §1

[15] = target: Neu5Ac(a2-3)Gal(b1-3)GlcNAc(b1-6)GalNAc
Outline: as §1

[16] = target: Neu5Ac(a2-3)Gal(b1-3)GlcNAc6S
Outline: as §1

[17] = target: Neu5Ac(a2-3)Gal(b1-3)[Fuc(a1-4)]GlcNAc
Outline: as §1

[18] = target: Neu5Ac(a2-3)Gal(b1-3)[Fuc(a1-4)]GlcNAc(b1-3)Gal(b1-3)[Fuc(a1-4)]GlcNAc
Outline: as §1

[19] = target: Neu5Ac(a2-3)Gal(b1-3)[Fuc(a1-4)]GlcNAc(b1-3)Gal(b1-4)[Fuc(a1-3)]GlcNAc
Outline: as §1

[20] = target: Neu5Ac(a2-3)Gal(b1-3)[GlcNAc(b1-6)]GalNAc
Outline: as §1

[21] = target: Neu5Ac(a2-3)Gal(b1-3)[Neu5Ac(a2-6)]GalNAc
Outline: as §1

[22] = target: Neu5Ac(a2-3)Gal(b1-3)[Neu5Ac(a2-6)]GlcNAc(b1-3)[Fuc(a1-3)[Gal(b1-4)]GlcNAc(b1-6)]Gal(b1-4)Glc
Outline: as §1

[23] = target: Neu5Ac(a2-3)Gal(b1-3)]Neu5Ac(a2-3)Gal(b1-4)]GlcNAc
Outline: as §1

[24] = target: Neu5Ac(a2-3)Gal(b1-4)Glc
Outline: as §1

[25] = target: Neu5Ac(a2-3)Gal(b1-4)GlcNAc
Outline: as §1

[26] = target: Neu5Ac(a2-3)Gal(b1-4)GlcNAc(b1-2)Man
Outline: as §1

[27] = target: Neu5Ac(a2-3)Gal(b1-4)GlcNAc(b1-2)Man(a1-3)[GlcNAc(b1-4)][Neu5Ac(a2-3)Gal(b1-4)GlcNAc(b1-2)Man(a1-6)]Man(b1-4)GlcNAc(b1-4)GlcNAc
Outline: as §1

[28] = target: Neu5Ac(a2-3)Gal(b1-4)GlcNAc(b1-2)Man(a1-3)[Neu5Ac(a2-3)Gal(b1-4)GlcNAc(b1-2)Man(a1-6)]Man(b1-4)GlcNAc(b1-4)GlcNAc
Outline: as §1

[29] = target: Neu5Ac(a2-3)Gal(b1-4)GlcNAc(b1-2)Man(a1-3)[Neu5Ac(a2-3)Gal(b1-4)GlcNAc(b1-2)Man(a1-6)]Man(b1-4)GlcNAc(b1-4)[Fuc(a1-6)]GlcNAc
Outline: as §1

[30] = target: Neu5Ac(a2-3)Gal(b1-4)GlcNAc(b1-2)Man(a1-3)[Neu5Ac(a2-6)Gal(b1-4)GlcNAc(b1-2)Man(a1-6)]Man(b1-4)GlcNAc(b1-4)GlcNAc
Outline: as §1

[31] = target: Neu5Ac(a2-3)Gal(b1-4)GlcNAc(b1-2)[Neu5Ac(a2-3)Gal(b1-4)GlcNAc(b1-4)]Man(a1-3)[GlcNAc(b1-4)][Neu5Ac(a2-3)Gal(b1-4)GlcNAc(b1-2)[Neu5Ac(a2-3)Gal(b1-4)GlcNAc(b1-6)]Man(a1-6)]Man(b1-4)GlcNAc(b1-4)GlcNAc
Outline: as §1

[32] = target: Neu5Ac(a2-3)Gal(b1-4)GlcNAc(b1-2)[Neu5Ac(a2-3)Gal(b1-4)GlcNAc(b1-4)]Man(a1-3)[GlcNAc(b1-4)][Neu5Ac(a2-3)Gal(b1-4)GlcNAc(b1-4)Man(a1-6)]Man(b1-4)GlcNAc(b1-4)GlcNAc
Outline: as §1

[33] = target: Neu5Ac(a2-3)Gal(b1-4)GlcNAc(b1-2)[Neu5Ac(a2-3)Gal(b1-4)GlcNAc(b1-6)]Man(a1-6)[Neu5Ac(a2-3)Gal(b1-4)GlcNAc(b1-2)Man(a1-3)][GlcNAc(b1-4)]Man(b1-4)GlcNAc(b1-4)GlcNAc
Outline: as §1

[34] = target: Neu5Ac(a2-3)Gal(b1-4)GlcNAc(b1-3)Gal
Outline: as §1

[35] = target: Neu5Ac(a2-3)Gal(b1-4)GlcNAc(b1-3)Gal(b1-3)GlcNAc
Outline: as §1

[36] = target: Neu5Ac(a2-3)Gal(b1-4)GlcNAc(b1-3)Gal(b1-4)GlcNAc
Outline: as §1

[37] = target: Neu5Ac(a2-3)Gal(b1-4)GlcNAc(b1-3)Gal(b1-4)GlcNAc(b1-2)Man(a1-3)[Neu5Ac(a2-3)Gal(b1-4)GlcNAc(b1-3)Gal(b1-4)GlcNAc(b1-2)Man(a1-6)]Man(b1-4)GlcNAc(b1-4)GlcNAc
Outline: as §1

B1: Wzz (Escherichia coli) (protein)
chain: MRTWKFPSVRVMMRVENNNVSGQNHDPEQIDLIDLLVQLWRGKMTIIISVIVAIVLAIGYLAVAKEKWTSTAIITQPDVGQIAGYNNAMNVIYGQAAPKVSDLQETLIGRFSSAFSALAETLDNQEEPEKLTIEPSVKNQQLPLTVSYVGQTAEGAQMKLAQYIQQVDDKVNQELEKDLKDNIALGRKNLQDSLRTQEVVAQEQKDLRIRQIQEALQYANQAQVTKPQIQQTGEDITQDTLFLLGSEALESMIKHEATRPLVFSSNYYQTRQNLLDIDNLDVDKLDIHAYLYVMKPTLPIRRDSPKKAITLILAVLLGGMVGAGIVLGRNALRNYNAK
glycan array binding signal (z-score) [1]: 0.407 | glycan array binding signal (z-score) [2]: -0.105 | glycan array binding signal (z-score) [3]: -0.951 | glycan array binding signal (z-score) [4]: 0.406 | glycan array binding signal (z-score) [5]: -0.308 | glycan array binding signal (z-score) [6]: -0.676 | glycan array binding signal (z-score) [7]: 0.438 | glycan array binding signal (z-score) [8]: -0.481 | glycan array binding signal (z-score) [9]: 0.254 | glycan array binding signal (z-score) [10]: -0.728 | glycan array binding signal (z-score) [11]: -0.568 | glycan array binding signal (z-score) [12]: -0.236 | glycan array binding signal (z-score) [13]: 0.643 | glycan array binding signal (z-score) [14]: -0.079 | glycan array binding signal (z-score) [15]: 0.116 | glycan array binding signal (z-score) [16]: 0.382 | glycan array binding signal (z-score) [17]: -0.593 | glycan array binding signal (z-score) [18]: -0.191 | glycan array binding signal (z-score) [19]: -0.223 | glycan array binding signal (z-score) [20]: 0.002 | glycan array binding signal (z-score) [21]: -0.631 | glycan array binding signal (z-score) [22]: -0.071 | glycan array binding signal (z-score) [23]: -0.4 | glycan array binding signal (z-score) [24]: 1.19 | glycan array binding signal (z-score) [25]: -0.161 | glycan array binding signal (z-score) [26]: 2.37 | glycan array binding signal (z-score) [27]: 0.462 | glycan array binding signal (z-score) [28]: -0.278 | glycan array binding signal (z-score) [29]: -0.597 | glycan array binding signal (z-score) [30]: 0.428 | glycan array binding signal (z-score) [31]: -0.466 | glycan array binding signal (z-score) [32]: -0.336 | glycan array binding signal (z-score) [33]: 0.255 | glycan array binding signal (z-score) [34]: 0.592 | glycan array binding signal (z-score) [35]: 0.863 | glycan array binding signal (z-score) [36]: -0.104 | glycan array binding signal (z-score) [37]: -0.195
